Values from PubChem BioAssay AID1159578 (Peter MacCallum Cancer Centre, 2015)
Screen: 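Knock-downs that alter how fast lymphatic endothelial cells migrate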 (primary screen). Cells: human lymphatic endothelial cells. Reagent: siRNA pool against human genes, 40 nM. Timing: 48 h after transfection. Detection: 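High-content imaging of dye-stained cells in a scratch assay measures filled wound area and nuclei per well; duplicate means given as ratio to mock and robust z-score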. Scale: migration robust z-score: higher = faster migration into the scratch; nuclei per well: higher = more cells in the well. Hit rule: 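Migration changed when robust z exceeds 2 or falls below -2 and mean nuclei number is at least 3300; otherwise not called changed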. Calls: active = migration changed; inactive = no migration change, or too few cells.
Shown is an unselected part of about 18,000 reagents tested. About 1,030 of all reagents (5.7%) were called active. 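Inactive calls also include pools with fewer than 3300 nuclei, whose migration was not assessed.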 Raw values are not corrected between plates. Entries without a mark were called inactive. Further read-outs or replicates are left out here.

Which result is listed for AXL (AXL receptor tyrosine kinase)?
migration robust z-score: -2.43 (active); migration class with cell-count check: migration z below -2; enough cells; nuclei per well, duplicate mean: 5856

For CAMK2B (calcium/calmodulin dependent protein kinase II beta), what does the deposit list?
migration robust z-score: -6.3; migration class with cell-count check: under 3300 nuclei; migration not judged; nuclei per well, duplicate mean: 2916

With ZNF768 (zinc finger protein 768), how do the results read?
migration robust z-score: 1.29; migration class with cell-count check: migration z between -2 and 2; enough cells; nuclei per well, duplicate mean: 5846

For TAX1BP1 (Tax1 binding protein 1), what was measured?
migration robust z-score: -0.78; migration class with cell-count check: migration z between -2 and 2; enough cells; nuclei per well, duplicate mean: 5456

What is on record for ZFYVE27 (zinc finger FYVE-type containing 27)?
migration robust z-score: 0.21; migration class with cell-count check: migration z between -2 and 2; enough cells; nuclei per well, duplicate mean: 5628

What is on record for DGAT2L6 (diacylglycerol O-acyltransferase 2 like 6)?
migration robust z-score: -0.4; migration class with cell-count check: migration z between -2 and 2; enough cells; nuclei per well, duplicate mean: 5910

How did the screen score OR5M10 (olfactory receptor family 5 subfamily M member 10)?
migration robust z-score: 0.11; migration class with cell-count check: migration z between -2 and 2; enough cells; nuclei per well, duplicate mean: 6996

How did the screen score LDOC1 (LDOC1 regulator of NFKB signaling)?
migration robust z-score: -0.07; migration class with cell-count check: migration z between -2 and 2; enough cells; nuclei per well, duplicate mean: 5295

With CBLN3 (cerebellin 3 precursor), what was measured?
migration robust z-score: -0.14; migration class with cell-count check: migration z between -2 and 2; enough cells; nuclei per well, duplicate mean: 6656

For CHP1 (calcineurin like EF-hand protein 1), what does the deposit list?
migration robust z-score: -0.52; migration class with cell-count check: migration z between -2 and 2; enough cells; nuclei per well, duplicate mean: 5822

With MAN2A1 (mannosidase alpha class 2A member 1), what was measured?
migration robust z-score: -0.28; migration class with cell-count check: migration z between -2 and 2; enough cells; nuclei per well, duplicate mean: 5724

How did the screen score SULT1C2 (sulfotransferase family 1C member 2)?
migration robust z-score: -0.1; migration class with cell-count check: migration z between -2 and 2; enough cells; nuclei per well, duplicate mean: 4632

With DNAJB3P (DnaJ heat shock protein family (Hsp40) member B3, pseudogene), how do the results read?
migration robust z-score: -0.12; migration class with cell-count check: migration z between -2 and 2; enough cells; nuclei per well, duplicate mean: 6296

How did the screen score TMC8 (transmembrane channel like 8)?
migration robust z-score: 0.52; migration class with cell-count check: migration z between -2 and 2; enough cells; nuclei per well, duplicate mean: 5714

A stretch of the results above, for reference:
LDOC1 (LDOC1 regulator of NFKB signaling) — migration robust z-score: -0.07; migration class with cell-count check: migration z between -2 and 2; enough cells; nuclei per well, duplicate mean: 5295
CBLN3 (cerebellin 3 precursor) — migration robust z-score: -0.14; migration class with cell-count check: migration z between -2 and 2; enough cells; nuclei per well, duplicate mean: 6656
